In article PMC6597546, “Identification of a potent benzoxaborole drug candidate for treating cryptosporidiosis” (Nature Communications, 2019):
Several values for one entry are separate records, joined by “and”; a condition that tells them apart may be missing. Identical values can stand only once. This continues a long series; more values of the same kind are listed elsewhere.

Tested on: C. parvum (Bunch Grass Farms Iowa isolate)
Test: Time-kill curve assay in HCT-8 cells
Type: cell-based, Cryptosporidium parvum
Method: The invasion assay, DNA replication assay, asexual to sexual stage conversion, and time-kill curve assays were performed using fluorescence microscopy to enumerate parasites and host cell nuclei. Staining protocols are individually described for each assay. Unless noted otherwise, the details of image acquisition were as follows. An inverted Nikon Eclipse Ti2000 microscope with an automated stage and Perfect Focus was used with NIS-Elements Advanced Research software (Nikon, USA, version 4.30.01) to image the wells. The microscope was programmed to focus on the center of each well and then take a 3 × 3 composite image per well using a 20 × (0.45 NA) objective. Images were exported as .tiff files and parasites and host nuclei counted using a custom macro on ImageJ (National Institutes of Health, version 1.52a). Data were analyzed using Microsoft Excel and GraphPad Prism (version 6.01). […] C. parvum Iowa isolate oocysts (Bunch Grass Farms, Deary, ID) were treated to induce excystation and added to >90% confluent HCT-8 cells in 384-well plates. […] The monolayers were then washed, fixed, and stained with Vicia villosa lectin and DAPI at the indicated time points, and imaged as for the C. parvum growth assay. Separate 384-well plates were used for each time point. Parasite numbers were normalized to host cell nucleus numbers and expressed as the percentage of host cells infected. Drug-induced parasite decay was isolated from the reduction in parasites over time that occurs spontaneously in the HCT-8 culture system by expressing the number of parasites as the percentage of the number of parasites present at each time point under control (DMSO-treated) conditions.

| Structure (SMILES) | % Parasite / host nuclei (compound at 3 x EC90, 6 h exposure) [%] | % Parasite / host nuclei (compound at 3 x EC90, 12 h exposure) | % Parasite / host nuclei (compound at 6 x EC90, 12 h exposure) | % Parasite / host nuclei (compound at 9 x EC90, 6 h exposure) | % Parasite / host nuclei (compound at 9 x EC90, 12 h exposure) | % Parasite / host nuclei (compound at 12 x EC90, 6 h exposure) | % Parasite / host nuclei (compound at 12 x EC90, 12 h exposure) | % Parasite / host nuclei (compound at EC50, 6 h exposure) | % Parasite / host nuclei (compound at EC50, 12 h exposure) | % Parasite / host nuclei (compound at EC90, 6 h exposure) | % Parasite / host nuclei (compound at EC90, 12 h exposure) | % Parasite / host nuclei (compound at 3 x EC90, 6 h exposure, listed as Nitazonxanide) [%] | % Parasite / host nuclei (compound at 3 x EC90, 12 h exposure, listed as Nitazonxanide) | % Parasite / host nuclei (compound at 6 x EC90, 12 h exposure, listed as Nitazonxanide) | % Parasite / host nuclei (compound at 9 x EC90, 12 h exposure, listed as Nitazonxanide) | % Parasite / host nuclei (compound at 12 x EC90, 12 h exposure, listed as Nitazonxanide) | % Parasite / host nuclei (compound at EC50, 12 h exposure, listed as Nitazonxanide) | % Parasite / host nuclei (compound at EC90, 6 h exposure, listed as Nitazonxanide) | % Parasite / host nuclei (compound at EC90, 12 h exposure, listed as Nitazonxanide) |
| --- | --- | --- | --- | --- | --- | --- | --- | --- | --- | --- | --- | --- | --- | --- | --- | --- | --- | --- | --- |
| CC1(C)OB(O)c2cc(NC(=O)c3ccc(-n4cccn4)cc3Cl)ccc21 [AN7973] | 26.45 | 33.04% and 36.63% and 39.78% and 37.64% | 29.11% and 26.03% and 30.41% and 37.79% | 29.26% and 27.55% and 32.23% and 31.50% | 21.29% and 35.19% and 39.07% and 30.31% | 26.76% and 19.40% and 23.35% and 28.45% | 29.59% and 27.46% and 23.71% and 31.24% | 24.93% and 26.16% and 26.01% | 44.90% and 35.42% and 25.97% and 46.95% | 27.68% and 21.40% and 34.02% and 23.52% | 32.30% and 38.76% and 39.12% and 37.77% | – | – | – | – | – | – | – | – |
| CC(=O)Oc1ccccc1C(=O)Nc1ncc([N+](=O)[O-])s1 [Nitazoxanide, nitazoxanide] | – | – | – | – | – | – | – | – | – | – | – | 23.29 | 24.13% and 29.86% and 23.25% and 24.87% | 29.56% and 23.62% and 27.4% and 20.87% | 27.47% and 30.43% and 30.17% and 34.13% | 25.49% and 32.12% and 27.1% and 28.94% | 46.32% and 29.88% and 53.87% and 51.85% | 20.94% and 34.36% and 33.38% | 33.04% and 24.61% and 32.15% and 25.85% |
